Laboratory results: US20230374151A1 (GlaxoSmithKline, published 2023)

Biological target: TnMUC1 (aberrantly glycosylated MUC1) on tumour cells (human, UniProt P15941 24-1255, truncated Tn / sialyl-Tn O-glycans on Ser/Thr (aberrant glycosylation))
Experiment: cell-based or functional assay

B1: TnMUC1 CAR MB053 (tagless, D16 lentiviral vector) on human T cells (other)
chain: DIVMTQSPDSLAVSLGERATINCKSSQSLLNSGDQKNYLTWYQQKPGQPPKLLIFWASTRESGVPDRFSGSGSGTDFTLTISSLQAEDVAVYYCQNDYSYPLTFGQGTKLEIKGGGGSGGGGSGGGGSGGGGSQVQLVQSGAEVKKPGSSVKVSCKASGYTFTDHAIHWVRQAPGQGLEWMGHFSPGNTDIKYNDKFKGRVTITADKSTSTAYMELSSLRSEDTAVYYCKTSTFFFDYWGQGTTVTVSSRTFVPVFLPAKPTTTPAPRPPTPAPTIASQPLSLRPEACRPAAGGAVHTRGLDFACDIYIWAPLAGTCGVLLLSLVITLYCNHRNKRGRKKLLYIFKQPFMRPVQTTQEEDGCSCRFPEEEEGGCELRVKFSRSADAPAYQQGQNQLYNELNLGRREEYDVLDKRRGRDPEMGGKPRRKNPQEGLYNELQKDKMAEAYSEIGMKGERRRGKGHDGLYQGLSTATKDTYDALHMQALPPR
  IFN-γ production (MSD), co-culture with WT Jurkat cells, fold increase above untransduced T cells: 1280 fold
